Measurements published in paper PMC12288965.
These are yes or no findings as the source states them, for the method shown. In cells and extracts the contact can be indirect. Some binding calls cover weakened binding; strength is not graded here. Blank lines part the entries; values can stand above or below the molecule they belong to.

Chains of the proteins cited; added tags and fusions are not shown.
UniProt P08047: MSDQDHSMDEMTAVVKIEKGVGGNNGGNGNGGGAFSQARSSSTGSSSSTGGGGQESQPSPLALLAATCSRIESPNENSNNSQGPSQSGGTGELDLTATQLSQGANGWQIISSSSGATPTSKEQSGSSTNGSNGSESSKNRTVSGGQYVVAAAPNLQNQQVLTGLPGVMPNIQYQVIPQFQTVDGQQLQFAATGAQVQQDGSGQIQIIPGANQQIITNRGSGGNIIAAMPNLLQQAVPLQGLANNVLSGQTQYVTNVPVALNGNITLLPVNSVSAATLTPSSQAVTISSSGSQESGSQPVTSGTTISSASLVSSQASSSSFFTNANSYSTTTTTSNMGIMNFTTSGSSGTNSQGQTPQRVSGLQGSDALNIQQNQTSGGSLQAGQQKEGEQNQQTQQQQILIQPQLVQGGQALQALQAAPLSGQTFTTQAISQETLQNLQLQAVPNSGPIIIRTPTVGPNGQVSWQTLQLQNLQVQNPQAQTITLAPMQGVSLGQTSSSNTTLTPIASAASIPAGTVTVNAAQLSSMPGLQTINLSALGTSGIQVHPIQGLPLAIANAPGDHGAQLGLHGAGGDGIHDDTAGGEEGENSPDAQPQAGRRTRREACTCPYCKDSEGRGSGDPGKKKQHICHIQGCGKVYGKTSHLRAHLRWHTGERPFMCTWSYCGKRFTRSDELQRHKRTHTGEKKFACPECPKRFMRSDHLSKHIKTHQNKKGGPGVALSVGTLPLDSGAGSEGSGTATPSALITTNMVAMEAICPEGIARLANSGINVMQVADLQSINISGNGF
UniProt P40763: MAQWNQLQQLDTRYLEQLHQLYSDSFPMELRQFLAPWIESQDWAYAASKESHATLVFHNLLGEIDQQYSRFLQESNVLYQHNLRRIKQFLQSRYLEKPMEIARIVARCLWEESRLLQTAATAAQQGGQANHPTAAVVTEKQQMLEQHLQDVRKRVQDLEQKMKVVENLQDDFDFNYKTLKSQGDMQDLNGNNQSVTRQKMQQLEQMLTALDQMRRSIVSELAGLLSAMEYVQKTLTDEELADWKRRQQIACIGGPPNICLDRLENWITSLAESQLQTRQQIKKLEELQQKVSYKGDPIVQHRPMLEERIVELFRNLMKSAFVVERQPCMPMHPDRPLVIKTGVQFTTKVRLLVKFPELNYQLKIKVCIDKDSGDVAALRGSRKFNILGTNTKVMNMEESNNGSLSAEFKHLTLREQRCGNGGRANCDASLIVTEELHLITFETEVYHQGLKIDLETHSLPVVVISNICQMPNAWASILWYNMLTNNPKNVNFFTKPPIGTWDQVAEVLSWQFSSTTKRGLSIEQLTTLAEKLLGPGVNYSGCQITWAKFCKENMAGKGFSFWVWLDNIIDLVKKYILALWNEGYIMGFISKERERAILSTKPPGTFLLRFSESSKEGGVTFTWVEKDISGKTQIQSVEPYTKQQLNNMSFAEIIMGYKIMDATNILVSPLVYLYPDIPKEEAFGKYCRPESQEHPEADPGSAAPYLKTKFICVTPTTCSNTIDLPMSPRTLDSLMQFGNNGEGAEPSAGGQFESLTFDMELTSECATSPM
UniProt Q16665: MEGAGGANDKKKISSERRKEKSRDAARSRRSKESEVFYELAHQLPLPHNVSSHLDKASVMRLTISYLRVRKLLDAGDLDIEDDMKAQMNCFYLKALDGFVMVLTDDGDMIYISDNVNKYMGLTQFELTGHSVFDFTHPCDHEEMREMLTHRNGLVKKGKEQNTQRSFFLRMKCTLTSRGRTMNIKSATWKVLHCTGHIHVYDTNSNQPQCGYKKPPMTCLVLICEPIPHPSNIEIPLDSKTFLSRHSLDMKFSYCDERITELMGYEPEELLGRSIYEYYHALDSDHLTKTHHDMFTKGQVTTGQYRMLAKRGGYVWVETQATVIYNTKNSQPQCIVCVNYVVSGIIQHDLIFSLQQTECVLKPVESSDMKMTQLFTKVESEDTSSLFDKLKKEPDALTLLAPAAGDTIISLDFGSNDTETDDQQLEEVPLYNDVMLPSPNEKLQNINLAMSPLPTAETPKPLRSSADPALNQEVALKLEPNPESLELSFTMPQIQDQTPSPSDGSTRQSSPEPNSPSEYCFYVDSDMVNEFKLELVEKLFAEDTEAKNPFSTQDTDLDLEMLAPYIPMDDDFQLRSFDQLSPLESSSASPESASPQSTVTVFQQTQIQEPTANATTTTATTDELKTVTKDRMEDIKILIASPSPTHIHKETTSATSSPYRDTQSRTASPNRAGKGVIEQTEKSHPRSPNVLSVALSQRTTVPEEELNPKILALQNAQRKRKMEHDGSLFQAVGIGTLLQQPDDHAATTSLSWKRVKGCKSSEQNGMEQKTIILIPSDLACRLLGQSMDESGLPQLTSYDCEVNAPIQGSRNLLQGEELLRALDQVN
UniProt Q9Y297: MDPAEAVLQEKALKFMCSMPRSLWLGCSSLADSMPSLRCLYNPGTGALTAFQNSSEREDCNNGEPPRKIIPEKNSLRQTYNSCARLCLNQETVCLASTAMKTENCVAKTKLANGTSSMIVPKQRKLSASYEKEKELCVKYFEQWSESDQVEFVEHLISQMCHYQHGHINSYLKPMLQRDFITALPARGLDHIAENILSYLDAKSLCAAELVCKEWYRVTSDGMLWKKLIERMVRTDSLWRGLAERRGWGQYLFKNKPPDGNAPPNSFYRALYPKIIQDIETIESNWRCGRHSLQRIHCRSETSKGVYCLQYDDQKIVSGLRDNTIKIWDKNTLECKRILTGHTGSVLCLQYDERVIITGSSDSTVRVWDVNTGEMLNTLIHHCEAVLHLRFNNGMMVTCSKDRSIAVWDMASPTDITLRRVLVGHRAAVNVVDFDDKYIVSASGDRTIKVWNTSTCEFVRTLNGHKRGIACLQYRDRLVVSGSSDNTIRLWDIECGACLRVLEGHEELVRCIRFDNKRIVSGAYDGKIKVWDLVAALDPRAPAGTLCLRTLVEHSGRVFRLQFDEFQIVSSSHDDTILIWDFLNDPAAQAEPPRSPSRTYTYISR

Tests used:
[1] = molecular target: specificity protein 1 (human (endogenous in SW620)) (UniProt P08047); test: co-IP; SW620 cells under normoxic or hypoxic conditions; lysis buffer 20 mmol/L Tris-HCl pH 7.4, 150 mmol/L NaCl, 1% NP-40, 1 mmol/L EDTA, 5% glycerol; specific antibodies overnight, Protein A/G magnetic beads, Western blot
[2] = molecular target: STAT3 (UniProt P40763); test: co-IP; immunoprecipitation (IP) assay of STAT3 and ANGPTL4; cells and precipitating antibody not named for this experiment

binding [1]: binds
Molecule: hypoxia-inducible factor 1A (from UniProt Q16665 1-826)

binding [1]: binds
Molecule: beta-transducin repeat containing E3 ubiquitin protein (from UniProt Q9Y297 1-605)

binding [2]: binds
B1: angiopoietin like 4 (protein, UniProt Q9BY76 26-406)
chain: GPVQSKSPRFASWDEMNVLAHGLLQLGQGLREHAERTRSQLSALERRLSACGSACQGTEGSTDLPLAPESRVDPEVLHSLQTQLKAQNSRIQQLFHKVAQQQRHLEKQHLRIQHLQSQFGLLDHKHLDHEVAKPARRKRLPEMAQPVDPAHNVSRLHRLPRDCQELFQVGERQSGLFEIQPQGSPPFLVNCKMTSDGGWTVIQRRHDGSVDFNRPWEAYKAGFGDPHGEFWLGLEKVHSITGDRNSRLAVQLRDWDGNAELLQFSVHLGGEDTAYSLQLTAPVAGQLGATTVPPSGLSVPFSTWDQDHDLRRDKNCAKSLSGGWWFGTCSHSNLNGQYFRSIPQQRQKLKKGIFWKTWRGRYYPLQATTMLIQPMAAEAAS
